Sequences of proteins named here, by UniProt entry; tags and fusion partners are left off.
UniProt Q13191, whole entry: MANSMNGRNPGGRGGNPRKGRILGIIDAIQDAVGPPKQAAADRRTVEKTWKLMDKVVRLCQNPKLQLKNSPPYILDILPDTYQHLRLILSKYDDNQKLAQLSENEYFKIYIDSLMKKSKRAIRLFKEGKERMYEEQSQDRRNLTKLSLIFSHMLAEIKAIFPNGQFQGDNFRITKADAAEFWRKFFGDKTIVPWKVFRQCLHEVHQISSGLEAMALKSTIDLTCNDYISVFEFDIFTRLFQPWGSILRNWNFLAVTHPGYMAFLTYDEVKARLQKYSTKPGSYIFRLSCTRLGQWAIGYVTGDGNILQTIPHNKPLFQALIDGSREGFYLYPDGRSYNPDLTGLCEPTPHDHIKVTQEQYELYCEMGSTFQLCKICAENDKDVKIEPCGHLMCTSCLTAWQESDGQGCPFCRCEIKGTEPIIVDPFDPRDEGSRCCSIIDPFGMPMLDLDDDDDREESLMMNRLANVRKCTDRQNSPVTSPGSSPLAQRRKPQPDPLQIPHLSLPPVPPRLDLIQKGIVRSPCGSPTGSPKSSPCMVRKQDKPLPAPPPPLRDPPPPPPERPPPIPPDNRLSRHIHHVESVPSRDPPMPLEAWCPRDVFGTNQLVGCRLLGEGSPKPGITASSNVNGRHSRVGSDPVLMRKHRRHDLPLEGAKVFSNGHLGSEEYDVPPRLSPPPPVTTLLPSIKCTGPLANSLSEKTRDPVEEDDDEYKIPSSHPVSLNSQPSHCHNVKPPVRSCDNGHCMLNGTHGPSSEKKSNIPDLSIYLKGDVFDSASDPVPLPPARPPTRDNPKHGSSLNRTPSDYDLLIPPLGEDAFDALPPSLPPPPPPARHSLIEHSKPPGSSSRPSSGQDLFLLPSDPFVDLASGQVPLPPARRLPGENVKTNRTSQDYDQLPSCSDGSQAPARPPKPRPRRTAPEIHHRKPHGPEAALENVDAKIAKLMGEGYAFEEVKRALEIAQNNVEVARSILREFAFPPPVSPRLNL

In patent US20240228482A1, “COMPOUNDS, COMPOSITIONS AND METHODS OF TREATING CANCER” (HOTSPOT THERAPEUTICS, INC., priority 2021, published 2024):

Biological target: CBL-B (Homo sapiens, UniProt Q13191)
Assay: CBL-B TR-FRET IC50 screening (E1/E2 ubiquitination, Biotin-Ubiquitin, Anti GST-Tb donor / Streptavidin-d2 acceptor)
Conditions: read-out: CBL-B TR-FRET activity IC50; CBL-B 10 nM final; 11-point titration from 100 uM; binned A-F
Procedure: Example 625. IC50 Screening
• a) Thaw UBE1, UBCH5b, CBL-B, Biotin-Ubiquitin, CBL-B assay buffer, and ATP on ice. Aliquot each protein, CBL-B assay buffer, and ATP into single-use aliquots and stored at −80° C. immediately. • b) Transfer 100 mL test compound (10 mM stock solution, start at 100 uM, 1:3 dilution, 11 points) and then backfill 100 mL DMSO to each well designated for the “Test compound” by Echo. • c) Transfer 200 mL DMSO to each well designated for the “High Control”, “Low Control” by Echo. • d) Carefully calculate the amount of proteins needed. Prepare appropriate amounts of diluted proteins; dilute only the amount required for the assay. […] Keep the diluted reagents on ice until use. • e) Add 2.5 μl diluted CBL-B (40 nM) for the “High Control” and “Test compound”, the final concentration is 10 nM. For the “Low Control”, add 2.5 μL buffer each well. Pre-incubate for 15 min. • f) Centrifuge at 1000 rpm for 1 minute and shake plate at a speed of 600 rpm for 5 minutes. • g) Prepare the Master Mixture (E1E2) using diluted reagents: N wells×(1 μl Biotin-Ub+0.5 μl diluted UBE1+1 μl diluted UBCH5+5 μl ATP). […] Incubate at room temperature for one hour. • k) Read the fluorescent intensity with EnVison2104 (PerkinElmer Life Sciences). […] Tb-donor emission should be measured at 615 nM followed by dye-acceptor emission at 665 nm. […]

Compound: Cn1cnnc1CC1(c2cccc(-n3cc4c(C(F)(F)F)cc(CN5CC(O)C5)cn4c3=O)c2)COC1 [Compound 61]
- IC50: < 100 nM

The match of structure and compound is tentative.
